Assay results as given in article PMC8563940 (Scientific Reports, 2021).

The chains behind the UniProt entries cited, without tags or fusion partners. Residues count along the entry.
UniProt P22303, 32-614: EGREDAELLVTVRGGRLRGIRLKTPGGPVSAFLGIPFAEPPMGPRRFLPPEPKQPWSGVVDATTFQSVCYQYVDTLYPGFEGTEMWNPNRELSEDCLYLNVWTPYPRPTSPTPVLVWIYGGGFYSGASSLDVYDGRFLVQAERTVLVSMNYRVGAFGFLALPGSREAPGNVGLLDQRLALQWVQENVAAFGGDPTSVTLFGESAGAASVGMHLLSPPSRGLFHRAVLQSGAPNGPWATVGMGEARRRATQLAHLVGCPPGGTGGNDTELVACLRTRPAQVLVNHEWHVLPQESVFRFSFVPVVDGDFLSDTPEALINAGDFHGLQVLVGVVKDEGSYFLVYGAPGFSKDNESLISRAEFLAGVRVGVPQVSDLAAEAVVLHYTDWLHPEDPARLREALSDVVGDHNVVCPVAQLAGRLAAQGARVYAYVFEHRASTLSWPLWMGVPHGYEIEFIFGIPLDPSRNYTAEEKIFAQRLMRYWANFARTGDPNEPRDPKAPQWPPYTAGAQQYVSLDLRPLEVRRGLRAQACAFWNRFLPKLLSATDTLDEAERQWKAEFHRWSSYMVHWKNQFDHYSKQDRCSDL
UniProt P06276, 29-602: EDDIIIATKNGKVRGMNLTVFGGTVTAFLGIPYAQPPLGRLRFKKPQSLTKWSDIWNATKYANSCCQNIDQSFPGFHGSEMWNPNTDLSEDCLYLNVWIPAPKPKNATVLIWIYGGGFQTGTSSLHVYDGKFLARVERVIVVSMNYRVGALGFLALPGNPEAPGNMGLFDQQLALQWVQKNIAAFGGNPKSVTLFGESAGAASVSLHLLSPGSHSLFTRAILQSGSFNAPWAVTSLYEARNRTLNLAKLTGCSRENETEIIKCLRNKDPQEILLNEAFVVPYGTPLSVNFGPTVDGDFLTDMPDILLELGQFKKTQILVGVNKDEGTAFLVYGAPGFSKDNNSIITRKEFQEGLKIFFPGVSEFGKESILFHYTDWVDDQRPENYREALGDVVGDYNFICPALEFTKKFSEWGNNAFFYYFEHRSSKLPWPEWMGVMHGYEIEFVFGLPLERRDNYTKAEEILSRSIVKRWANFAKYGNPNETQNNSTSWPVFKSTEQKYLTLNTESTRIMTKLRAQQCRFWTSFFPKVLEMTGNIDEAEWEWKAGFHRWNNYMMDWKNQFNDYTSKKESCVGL

Columns and labels:
[1] = molecular target: T1, human acetylcholinesterase (hAChE) (Homo sapiens, UniProt P22303); assay: Progressive inhibition of hAChE by organophosphorus pesticides (Ellman method); type: biochemical
T1 construct: made in house

[2] = molecular target: T2, human butyrylcholinesterase (hBChE) (Homo sapiens, UniProt P06276); assay: Progressive inhibition of hBChE by organophosphorus pesticides (Ellman method); type: biochemical
T2 construct: hBChE derived from purified human plasma; from tissue; host or cells: human plasma

SMILES: CCOP(=O)(NC(C)C)Oc1ccc(SC)c(C)c1 (centres unmarked) [Fenamiphos, fenamiphos]
- Ki [1]: 52.1 ± 6.19 µM
- Ki [2]: 4.38 ± 1.21 µM
